The source of these data is PMC7819943, “Rice protein-binding microarrays: a tool to detect cis-acting elements near promoter regions in rice”.

This is one part of the list.

In the experiment the target is T1, OsSMF1 (Oryza sativa, UniProt Q6ZLB0 1-436).
T1 sequence: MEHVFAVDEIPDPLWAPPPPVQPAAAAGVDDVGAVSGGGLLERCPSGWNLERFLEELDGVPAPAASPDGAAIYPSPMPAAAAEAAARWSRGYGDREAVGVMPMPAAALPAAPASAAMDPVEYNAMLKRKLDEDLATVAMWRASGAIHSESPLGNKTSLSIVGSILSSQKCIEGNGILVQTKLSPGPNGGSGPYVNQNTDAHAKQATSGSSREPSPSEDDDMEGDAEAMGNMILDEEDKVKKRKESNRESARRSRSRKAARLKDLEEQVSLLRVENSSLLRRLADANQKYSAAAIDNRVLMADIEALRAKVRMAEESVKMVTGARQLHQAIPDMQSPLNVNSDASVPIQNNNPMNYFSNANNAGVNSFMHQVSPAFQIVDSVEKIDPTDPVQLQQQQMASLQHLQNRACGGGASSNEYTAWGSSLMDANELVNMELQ
The experiment can be described thus: protein-binding microarray (RPBM); PBS, 2% BSA, 51.3 ng/ul salmon testes DNA, 50 uM zinc acetate, 200 nM TF, 25 C, 1 h; high values mean tight binding. The settings on record: protein: recombinant; tags: N-terminal polyhistidine and DsRed monomer fusion (pET32a); chain copies: 2; label: CyDye5-dUTP incorporated in the synthesized complementary strand; 3' TTTTT single-stranded linker to array surface; dsDNA, one strand shown. An outline of the steps:
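In PBS with 2% BSA, salmon testes DNA and 50 µM zinc acetate, 200 nM protein was incubated on a custom Agilent array at 25 °C for 1 h and then washed off. The array had been made double-stranded by primer extension with Cy5-dUTP and blocked with 2% BSA. The proteins were transcription factors fused N-terminally to polyhistidine and DsRed, expressed in E. coli BL21-CodonPlus and purified on Ni–NTA. The binding signal is per-feature fluorescence intensity (arbitrary units) from an Axon 4000B scanner.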
For the sequence “AGGAGAGGAAGAGAGAAAGAGAGAGAAGCAGAGCAGAGGACGGAGTCACCTAGTGCAG”, the binding signal is 3300 fluorescence intensity (a.u.).

As to “CTCTCAAAATATTCGGATGTAATTTTAGTCGCACAAACATCGGAGTCACCTAGTGCAG”, the binding signal was 39200 fluorescence intensity (a.u.).

As to “GGTCATTCTACCCTCTGATACAGTACTAGTCACCATTCAGCGGAGTCACCTAGTGCAG”, the binding signal was 4220 fluorescence intensity (a.u.). In the case of “TTACAAAATTAAAACCATATATCGTCGTCACGTACTTTTACGGAGTCACCTAGTGCAG”, the binding signal was 3360 fluorescence intensity (a.u.). Turning to “CCTTCCCCGTCGCGCTCTCCTTGGCGTCGGACATCTTCTCCGGAGTCACCTAGTGCAG”, the binding signal was 3310 fluorescence intensity (a.u.). For the sequence “AGGTAGTAGGAACGGGTGACAATAGTCGGCCAGCTCTACACGGAGTCACCTAGTGCAG”, the binding signal is 4110 fluorescence intensity (a.u.). As to “TAATTAGATCGTGCGTGCGTGCGTGCTGTTCGTGAATGTTCGGAGTCACCTAGTGCAG”, the binding signal is 5460 fluorescence intensity (a.u.).

Take “TGACATAGAGAGTGATCACAAGCGAAATATTTATTCGGAACGGAGTCACCTAGTGCAG”: the binding signal was 48300 fluorescence intensity (a.u.). The result for “CTCCGCATCTCCCCTCAATCTTACTCCGTCACTGACACGTCGGAGTCACCTAGTGCAG” reads 8980 fluorescence intensity (a.u.). Under “GAGCGACGCCGACGCCTCCCTCGCATTCGCATCAGCCCTGCGGAGTCACCTAGTGCAG” stands 19300 fluorescence intensity (a.u.). The result for “TTTCGTATATAAAGATTTCGCATGAAACATATCATTTAGCCGGAGTCACCTAGTGCAG” reads 11800 fluorescence intensity (a.u.); that for “GGTGCTACTCCCAACGTCATATGTTGACCAGCGTCGAAGGCGGAGTCACCTAGTGCAG”, 3210 fluorescence intensity (a.u.); that for “AACAAGTGTGTTGGTGGTGGTGGAAGTTGTTACAGAATTGCGGAGTCACCTAGTGCAG”, 3470 fluorescence intensity (a.u.). Turning to “AGCCGTGCGACAACCAGGTCAGCCGAACTCCGCCCTCATTCGGAGTCACCTAGTGCAG”, the binding signal is 3260 fluorescence intensity (a.u.). Under “CGATTCCACCTATTCAGAAATCACGCGATGACTACGCCGCCGGAGTCACCTAGTGCAG” stands 3330 fluorescence intensity (a.u.); under “ATCGCGTTGGCTGGCCTGGCATCCATCGGCAGTGGCAGTGCGGAGTCACCTAGTGCAG”, 3260 fluorescence intensity (a.u.).

Take “GCATGACACGTCTGCGCTGAGTCAGTCTGGTGGTCCTAATCGGAGTCACCTAGTGCAG”: the binding signal is 16700 fluorescence intensity (a.u.). For the sequence “CGTTGTTACCACCTCATTTTACGTGGAACATTTAATCTTTCGGAGTCACCTAGTGCAG”, the binding signal was 5000 fluorescence intensity (a.u.). Under “TCAAGGCGCCGCGAGCACGTCACCGCGAACCGCATCCATCCGGAGTCACCTAGTGCAG” stands 3790 fluorescence intensity (a.u.).

With “ATCCTCCGCCACCGCCGCCCGCGCCGATCCCCACCCATCGCGGAGTCACCTAGTGCAG”, the binding signal is 3410 fluorescence intensity (a.u.). The result for “TTGTTGCAACAACGCATGTGGTGGGACACGTGGTGGGAACCGGAGTCACCTAGTGCAG” reads 5500 fluorescence intensity (a.u.). As to “ATTGGGAGCGCGGATGTGTGCGTGGCGTGAAATCTCCGACCGGAGTCACCTAGTGCAG”, the binding signal is 4670 fluorescence intensity (a.u.). “CCAAAGTTATTATTAGTGTTTCTTCTATCATTTCATCTCCCGGAGTCACCTAGTGCAG”: the binding signal is 3570 fluorescence intensity (a.u.). For “ATGTTGACTCGTTTGCCTGTGTTCCTCTTGCTGCTATTCACGGAGTCACCTAGTGCAG”, the binding signal is 3230 fluorescence intensity (a.u.). Under “CCAAGTGGTCCGGTCCGGTGATGCAGGCCAGCCCAACGATCGGAGTCACCTAGTGCAG” stands 3140 fluorescence intensity (a.u.); under “TGCAGTGCAAGGCCCTGGAGCTCTGCTTCAACGTGGCGCTCGGAGTCACCTAGTGCAG”, 4770 fluorescence intensity (a.u.).

For the sequence “AGGCAACAAGAGTAGGTTCCATTTCATATCATCACTAGGACGGAGTCACCTAGTGCAG”, the binding signal is 4010 fluorescence intensity (a.u.). Under “CGTCCTCCTCGTCATCGACGCCCCAATCGGCACCGCCTCCCGGAGTCACCTAGTGCAG” stands 4860 fluorescence intensity (a.u.); under “TGAATCTGTTGCATCTGTAGCAATCATGCGACTAGGTACACGGAGTCACCTAGTGCAG”, 3350 fluorescence intensity (a.u.). Turning to “TATTAGACTAGGTCAACGAGCCATGTCAGCATAGGATCAACGGAGTCACCTAGTGCAG”, the binding signal was 10400 fluorescence intensity (a.u.). For the sequence “GGCGACTGCACGTGTCCTCCATGGCCGCGGCGCTGGGTTGCGGAGTCACCTAGTGCAG”, the binding signal was 3430 fluorescence intensity (a.u.).

In the case of “GCAAACAAAATATACCTGCCAAGTCAACTTCACGGCCGGACGGAGTCACCTAGTGCAG”, the binding signal is 4280 fluorescence intensity (a.u.). Under “CCGGGCCCATATCACCGACAACGACGATGTCGAAGCAACGCGGAGTCACCTAGTGCAG” stands 4100 fluorescence intensity (a.u.). The result for “GGAACGGGAAGGCAGGTCGGTCATACACGTAAGATAGGACCGGAGTCACCTAGTGCAG” reads 6430 fluorescence intensity (a.u.). Under “TTTGTGAGTGTGCGTGTATAGTGATGCGTATGCGTATGTGCGGAGTCACCTAGTGCAG” stands 5560 fluorescence intensity (a.u.).

Take “GATGTAGTATTATTAGTAGATCCGATTGATTACGTGTGAGCGGAGTCACCTAGTGCAG”: the binding signal was 4940 fluorescence intensity (a.u.). Under “CGTTCCTAGTTCCTCGCCGTCGCCAACATCGATAGCAGAGCGGAGTCACCTAGTGCAG” stands 3190 fluorescence intensity (a.u.); under “ATCTAACGTACCACGTAAGCATCACATGTGATAAAATCGTCGGAGTCACCTAGTGCAG”, 7220 fluorescence intensity (a.u.).

Consider “CGCCGCGGAACGGCACGTCGGCGGTGCTGCGGCTGACGCACGGAGTCACCTAGTGCAG”, for which the binding signal was 4200 fluorescence intensity (a.u.). Under “GCCACCGCCGCGGGCGCGGCCCCGGCCCCGGCCCCGGCCGCGGAGTCACCTAGTGCAG” stands 3390 fluorescence intensity (a.u.). For “TCGTGAGGGGCCGTCACCGTCAGCCCGTCCAGTTTCTGGTCGGAGTCACCTAGTGCAG”, the binding signal is 4460 fluorescence intensity (a.u.).

On to “GATTTTGATGCCTGCTCCCCGATGTGTCCATCGGGTGTCGCGGAGTCACCTAGTGCAG”, for which the binding signal is 4230 fluorescence intensity (a.u.).
